Experimental data reported in article PMC9967964.
No constants are given. Whether binding was seen depends on the method and setting. Binding seen in cells or lysates may run through a third protein. For part of these data: Binding can be weak; no strength is given.

Legend:
[1] = target: NOX4 (guinea pig (endogenous in guinea pig spermatozoa)); assay: condition: only spermatozoa capacitated in the presence of VAS2870; co-IP; anti-NOX4 IgG crosslinked (DSS) to Protein A/G agarose, incubated at 4 °C for 12 h with 500 µg precleared guinea pig spermatozoa protein extract; Western blot for NOX2; extracts of spermatozoa capacitated in the presence of VAS2870
[2] = target: NOX4 (guinea pig (endogenous in guinea pig spermatozoa)); assay: co-IP; anti-NOX4 IgG crosslinked (DSS) to Protein A/G agarose, incubated at 4 °C for 12 h with 500 µg precleared guinea pig spermatozoa protein extract; Western blot for NOX2; extracts of non-capacitated spermatozoa, and of spermatozoa capacitated in the presence of calpeptin (10 µM)
[3] = target: NOX4 (guinea pig (endogenous in guinea pig spermatozoa)); assay: co-IP; anti-NOX4 IgG crosslinked (DSS) to Protein A/G agarose, incubated at 4 °C for 12 h with 500 µg precleared guinea pig spermatozoa protein extract; Western blot for NOX2; extracts of capacitated spermatozoa

- binding [1]: no binding
- binding [2]: binds
B1: NOX2 (protein, UniProt H0UXC6 1-570)
chain: MGNWAVNEGISIVVILLWLGINAFLFVHYYKLYDEEPKYFYTRKLLGKALAWARAPAACLNFNCMLILLPVCRNLLSFLRGSSACCSTRIRRQLDRNLTFHKMVAWMIALHTAIHTVAHLFNVEWCVDAQVGNSDPYSVALSKIGDKDGESYLNFAREKIKNPAGGLYVAVTRLAGVTGIVITLCLILIITSSTKTIRRSYFEVFWYTHHLFVIFFIGLAIHGAERIVRGQTAKSLEEHNIMICKQNFTEWGKIKNCPVPEFAGNPPMTWKWIVGPMFLYLCERLVRFWRSQQKVVITKVVTHPFKTIELQMKKKGFKMEVGQYIFVKCPIVSKLEWHPFTLTSAPEEDFFSIHIRIVGDWTEGLFNACGCDKQEFQDAWKLPKIAVDGPFGTASEDVFSYEVVMLVGAGIGVTPFASILKSVWYKYCNNATNLKLKKIYFYWLCRDTHAFEWFADLLQLLETQMQERNNANFLSYNIYLTGWDESQANHFAVHHDEEKDVITGLKQKTLYGRPNWDNEFKTIGSQHPNTRIGVFLCGPEALAKTLNKQCISNSDSAPRGVHFIFNKENF
- binding [3]: no binding (only capacitated spermatozoa)
